Results published in paper PMC7862700.
This is one part of the list. The exact form of the protein is not confirmed.

Target: T1, ELF2 (UniProt Q15723)
T1 sequence: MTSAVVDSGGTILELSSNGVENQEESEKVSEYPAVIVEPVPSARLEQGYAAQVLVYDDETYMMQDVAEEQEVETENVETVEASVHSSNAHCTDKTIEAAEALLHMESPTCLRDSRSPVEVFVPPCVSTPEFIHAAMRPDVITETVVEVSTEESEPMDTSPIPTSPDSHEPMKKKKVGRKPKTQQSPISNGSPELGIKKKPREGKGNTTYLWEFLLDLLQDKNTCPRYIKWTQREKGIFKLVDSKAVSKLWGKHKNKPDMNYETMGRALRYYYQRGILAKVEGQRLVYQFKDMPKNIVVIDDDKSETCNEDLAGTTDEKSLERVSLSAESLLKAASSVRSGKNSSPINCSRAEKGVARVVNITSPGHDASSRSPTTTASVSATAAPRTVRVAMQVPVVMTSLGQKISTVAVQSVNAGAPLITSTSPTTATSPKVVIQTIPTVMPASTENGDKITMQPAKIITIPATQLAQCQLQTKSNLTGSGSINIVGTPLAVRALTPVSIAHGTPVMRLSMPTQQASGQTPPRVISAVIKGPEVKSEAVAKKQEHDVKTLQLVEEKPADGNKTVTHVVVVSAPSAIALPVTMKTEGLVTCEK
Test: DAPPL (digital affinity profiling via proximity ligation, sequencing)
Details: 10 mM Tris-HCl pH 7.5, 50 mM NaCl, 1 mM DTT, 4% glycerol, room temperature, 30 min; GST-TFs on glutathione beads, 16-mer random dsDNA library, 0.1% …; high values mean tight binding; double strand, one strand shown; scale: fold enrichment (6-mer frequency, TF over GST control)

Sequence	binding signal
TCGCCT	1.21
TTAGTA	1.09
TCCCCT	1.58
CTCGCC	1.17
CTATAC	1.2
TTGACA	1.27
TTACTC	1.18
TACCCG	1.63
TGGTTT	1.61
GCTTGC	1.19
CTTACG	1.04
GTTCTA	1.17
TTATTG	1.24
CATACT	1.35
CCTAGA	0.959
TAATGT	1.07
TACTTA	1.18
ATAAAC	1.14
AAGGTA	1.08
CTTGGA	1.13

Sequence	binding signal
AAAGAA	1.26
AAGGAA	1.6
AATGAT	1.15
ACTTTA	1.16
GACTCT	1.23
TAGGCT	1.18
CTGTTA	1.32
AATCCC	1.3
CTTCCT	4.81
GAATAC	1.04
AGCCCC	1.1
CGTTCG	1.17
AAGTAA	1.42
AAACAT	1.45
TCACGC	1.13
CACTAA	1.07
TGGTTA	1.01
TAGCCC	1.1
AATGGG	1.18

Shown with bars between the fields: entries from further up
Sequence | binding signal
AAGTAA | 1.42
AAACAT | 1.45
